Results from patent publication US20040044182A1 (published 2004).
Results are given in words; binding and its absence hold for the method and conditions named. In cells and extracts the contact can be indirect. Some results given as binding are weak or reduced against the parent protein; the word gives no strength.

Sequences of proteins named here, by UniProt entry; tags and fusion partners are left off. A change or cut given only in a name is not applied to a line headed by its entry.
UniProt P61769: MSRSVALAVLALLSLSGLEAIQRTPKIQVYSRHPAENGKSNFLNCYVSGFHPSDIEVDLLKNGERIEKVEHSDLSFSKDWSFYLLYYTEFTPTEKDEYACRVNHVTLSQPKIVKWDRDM

Legend:
[1] = biological target: T1, β2m (12 kDa non-polymorphic light chain) (human, UniProt P61769 21-119); experiment: immunoblot of purified protein with anti-β2m antibody; β2m co-purified
T1 construct: No recombinant β2m was added; It came from the human HEK293 cells and co-purified under native conditions; also called beta-2-microglobulin

[2] = biological target: T1, β2m (12 kDa non-polymorphic light chain); experiment: immunoblot of purified protein (10 to 100 ng) with anti-β2m antibody; β2m co-purified

binding [1]: binds
binding [2]: binds
B1: recombinant soluble HLA-G1 (protein)
MHC heavy: APLADYKDDDDKLAGSHSMRYFSAAVSRPGRGEPRFIAMGYVDDTQFVRFDSDSACPRMEPRAPWVEQEGPEYWEEETRNTKAHAQTDRMNLQTLRGYYNQSEASSHTLQWMIGCDLGSDGRLLRGYEQYAYDGKDYLALNEDLRSWTAADTAAQISKRKCEAANVAEQRRAYLEGTCVEWLHRYLENGKEMLQRADPPKTHVTHHPVFDYEATLRCWALGFYPAEIILTWQRDGEDQTQDVELVETRPAGDGTFQKWAAVVVPSGEEQRYTCHVQHEGLPEPLMLRWSKEGDGGIMSVRESRSLSEDL
modifications: glycosylated (N-linked site at asparagine 86 in the α1 region)
